Laboratory results: PubChem BioAssay AID504444 (National Center for Advancing Translational Sciences (NCATS), 2011)
Among all 360,000 compounds or so, about 7,500 (2.1%) were called active. This list was built around the results that the source calls inconclusive (neither active nor inactive); the mix of calls is not that of the screen. Calls follow the shape of the dose curve; as a rule, active = well fitted inhibition curve with a large enough effect; inconclusive = small, poorly fitted or top-dose-only effect, or effect the other way; inactive = flat fitted curve, though single readings scatter. A potency beside an inconclusive call is a rough fit, not a confirmed value.

Assay: Nrf2 qHTS screen for inhibitors; also: nearly all actives have a fitted effect of over 60% in size
Settings: A549 ARE-Fluc reporter, luciferase luminescence, 18-24 h; activity change, negative = inhibition: at 46 µM (top of the series)
Summary of the method: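 Cells were seeded and rested 2 h, then exposed to compounds for 18-24 h. CellTiter-Fluor was read first as a viability measure. BugLite was added 15 min before the final luminescent read of ARE-luciferase activity in A549 cells.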
% is scaled to controls: 0 for no effect and ±100 for the full control effect; potency is read from the fitted curve at half-maximal effect.

SMILES	activity change, negative = inhibition	Potency
CN(C)C1(CNC(=O)C2CCN(S(=O)(=O)c3c(Cl)cccc3Cl)CC2)CCCCC1	inactive: 3.47%	
CC1CN(c2nc3ccccc3nc2NS(=O)(=O)c2ccccc2)CC(C)O1 (stereo not drawn)		inconclusive: 20.6 µM [activator, single point]
CC(N=c1ccccn1C(=O)Nc1ccc(Cl)cc1)c1ccco1 (stereo not drawn)		inconclusive: 25.9 µM [activator, single point]
Cc1cc(C)c(S(=O)(=O)Nc2cc(SCC(=O)O)c(O)c3ccccc23)cc1C	inactive: 5.39%	
O=C(Nc1ccccc1)c1ccc(-c2ccc(Br)cc2)o1		inconclusive: 29.1 µM [falling, single point]
Cc1ccc2[nH]c(=O)c3cc(C(=O)N(C)c4ccc(Br)cc4)sc3c2c1		inconclusive: 3.26 µM [activator, partial curve, poor fit]
COc1cccc(C2CC(c3cccs3)=NN2C(=O)CCC(=O)O)c1OC (stereo not drawn)	inactive: 5.54%	
Cc1ccccc1/C=N/NC(=O)c1sccc1C		inconclusive: 5.8 µM [activator, partial curve]
CSc1ccccc1NC(=O)c1cc(Cl)sc1Cl		inconclusive: 14.6 µM [activator, partial curve, poor fit]
COCCn1c(SCC(=O)NC2CCCC2)nnc1-c1ccco1	inactive: -3.51%	
COc1ccc(-c2noc3c2-c2nc(-c4ccccc4Cl)sc2CC3)cc1		inconclusive: 23.1 µM [activator, partial curve]
Cc1cccc(NC(=S)NCCC(C)C)c1		inconclusive: 25.9 µM [activator, single point]
O=C(CSc1nc(-c2ccc(F)cc2)cc(C(F)(F)F)n1)Nc1ccc2c(c1)OCO2		inconclusive: 23.1 µM [falling, partial curve]
Cc1ccc(OCCNC(=O)c2ccccc2F)cc1		inconclusive: 18.4 µM [activator, single point]
CCc1ccc(N(C(=O)c2ccoc2C)C(C(=O)NC2CCCC2)c2ccc(OC)cc2)cc1 (stereo not drawn)		inconclusive: 14.6 µM [falling, partial curve, poor fit]
CC(=O)Nc1ccc2nc(-c3ccccn3)[nH]c2c1	inactive: 22.3%	
Cc1oc(-c2ccc(Cl)cc2)nc1CN1CCC(C(=O)NCc2cccnc2)CC1	inactive: -9.75%	
Cc1cc(C)c2c(CC(=O)Nc3ccc(F)cc3)coc2c1		inconclusive: 23.1 µM [falling, single point]
CCOc1nc2c(c(=O)n(C)c(=O)n2C)n1Cc1ccccc1Cl		active: 18.4 µM
C/C(=N\Nc1ccc(Cl)cc1)c1ccccn1		inconclusive: 20.6 µM [activator, partial curve]
COc1ccc2[nH]c3c(N4CCC(O)(c5cccc(C(F)(F)F)c5)CC4)ncnc3c2c1		active: 23.1 µM
CC(C)c1csc(CN2CCN(Cc3ccc(F)c(F)c3)C(CCO)C2)n1 (stereo not drawn)		inconclusive: 23.1 µM [falling, single point]

Single values from the results shown:
For activity change, negative = inhibition, CC(=O)Nc1ccc2nc(-c3ccccn3)[nH]c2c1 is listed with inactive: 22.3%
For Potency, CC(N=c1ccccn1C(=O)Nc1ccc(Cl)cc1)c1ccco1 (stereo not drawn) is listed with inconclusive: 25.9 µM [activator, single point]
For Potency, CSc1ccccc1NC(=O)c1cc(Cl)sc1Cl is listed with inconclusive: 14.6 µM [activator, partial curve, poor fit]

(continued)

SMILES	activity change, negative = inhibition	Potency
O=C(c1cnn2c(C(F)F)cc(-c3ccccc3)nc12)N1CCc2ccccc2C1		active: 23.1 µM
COc1ccc(-c2csc(Nc3ccccn3)n2)cc1OC		inconclusive: 7.31 µM [activator, partial curve, poor fit]
CCc1ccc(NC(=O)CCCNC(=O)Cn2cnc3sc(C)c(C)c3c2=O)cc1		inconclusive: 29.1 µM [falling, single point]
C/C(=N/NS(C)(=O)=O)c1ccc2ccccc2c1		inconclusive: 13 µM [activator, partial curve]
COc1ccc(C(=O)Nc2ccc(NC(=O)c3cnccn3)cn2)cc1		inconclusive: 4.11 µM [falling, partial curve, poor fit]
N=c1c2c(n(Cc3ccc(F)cc3)c3c1CCC3)CCCC2		inconclusive: 18.4 µM [falling, partial curve]
COc1ccc(C(=O)Nc2cc3c(oc2=O)CCCC3=O)cc1		inconclusive: 4.11 µM [activator, partial curve]
CCOC(=O)c1sc2nc(N3CCCC3)c3c(c2c1N)CC(C)(C)OC3	inactive: -19.3%	
CCOC(=O)C1=C(C)N=c2s/c(=C3\C(=O)Nc4ccccc43)c(=O)n2C1c1ccc2c(c1)OCO2 (stereo not drawn)		inconclusive: 5.17 µM [falling, partial curve, poor fit]
CC(OCc1ccccc1)C(NC(=O)OC(C)(C)C)C(=O)NC1COC2CC(n3cc(F)c(=O)[nH]c3=O)OC12 (stereo not drawn)	inactive: -3.3%	
CC(C)c1cc(C(=O)Nc2ccc3c(c2)OCO3)no1		inconclusive: 1.64 µM [activator, full curve]
Cc1cc(C)cc(OCC(O)CN2CCC(CN3C(=O)c4cccc5cccc(c45)C3=O)CC2)c1 (stereo not drawn)		active: 18.4 µM
Cc1sc2ncnc(N3CCN(S(=O)(=O)c4ccc(F)cc4)CC3)c2c1C		inconclusive: 29.1 µM [falling, single point]
COc1ccc(OCCNC(=O)Nc2cc(F)c(F)cc2Cl)cc1		inconclusive: 29.1 µM [falling, single point]
Cc1ccc(-c2cc(-c3ccc4c(c3)NC(=O)CO4)nc3c2COc2ccccc2-3)cc1		inconclusive: 0.184 µM [activator, full curve, poor fit]
Cc1cc(C)n(-c2ccc(C(=O)Nc3nc4ccccc4s3)cc2)n1		inconclusive: 1.03 µM [activator, partial curve]
O=C1OC(c2cccc([N+](=O)[O-])c2)C2(CCCC2)C(=O)C12CCCCC2 (stereo not drawn)		inconclusive: 29.1 µM [falling, single point]
CCOc1ccc2c(c1)c(=O)c(C(=O)c1ccccc1)cn2Cc1ccccc1		inconclusive: 5.8 µM [activator, partial curve, poor fit]
Cc1ccc(C(=O)Nc2c(C(=O)NC(C)(C)C)oc3ccccc23)cc1		inconclusive: 4.11 µM [falling, full curve, poor fit]
O=C(Nc1cccc(-c2cnc3ccccc3n2)c1)c1cccc(NC(=O)c2ccco2)c1		inconclusive: 29.1 µM [falling, single point]
CCCCCCCN=CC1=C(O)CC(c2ccccc2)CC1=O (stereo not drawn)		inconclusive: 0.0731 µM [activator, full curve, poor fit]
